This is an account of results in publication PMC4501846.

Amino acid sequences for entries named in this document (tags omitted). A change or cut given only in a name is not applied to a line headed by its entry.
UniProt P51149: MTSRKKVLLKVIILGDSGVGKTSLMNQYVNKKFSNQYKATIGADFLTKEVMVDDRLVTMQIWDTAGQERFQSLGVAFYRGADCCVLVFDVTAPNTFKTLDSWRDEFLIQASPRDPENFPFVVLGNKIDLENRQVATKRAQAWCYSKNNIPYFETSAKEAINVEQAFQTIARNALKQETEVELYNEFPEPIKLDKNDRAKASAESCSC
UniProt Q709C8: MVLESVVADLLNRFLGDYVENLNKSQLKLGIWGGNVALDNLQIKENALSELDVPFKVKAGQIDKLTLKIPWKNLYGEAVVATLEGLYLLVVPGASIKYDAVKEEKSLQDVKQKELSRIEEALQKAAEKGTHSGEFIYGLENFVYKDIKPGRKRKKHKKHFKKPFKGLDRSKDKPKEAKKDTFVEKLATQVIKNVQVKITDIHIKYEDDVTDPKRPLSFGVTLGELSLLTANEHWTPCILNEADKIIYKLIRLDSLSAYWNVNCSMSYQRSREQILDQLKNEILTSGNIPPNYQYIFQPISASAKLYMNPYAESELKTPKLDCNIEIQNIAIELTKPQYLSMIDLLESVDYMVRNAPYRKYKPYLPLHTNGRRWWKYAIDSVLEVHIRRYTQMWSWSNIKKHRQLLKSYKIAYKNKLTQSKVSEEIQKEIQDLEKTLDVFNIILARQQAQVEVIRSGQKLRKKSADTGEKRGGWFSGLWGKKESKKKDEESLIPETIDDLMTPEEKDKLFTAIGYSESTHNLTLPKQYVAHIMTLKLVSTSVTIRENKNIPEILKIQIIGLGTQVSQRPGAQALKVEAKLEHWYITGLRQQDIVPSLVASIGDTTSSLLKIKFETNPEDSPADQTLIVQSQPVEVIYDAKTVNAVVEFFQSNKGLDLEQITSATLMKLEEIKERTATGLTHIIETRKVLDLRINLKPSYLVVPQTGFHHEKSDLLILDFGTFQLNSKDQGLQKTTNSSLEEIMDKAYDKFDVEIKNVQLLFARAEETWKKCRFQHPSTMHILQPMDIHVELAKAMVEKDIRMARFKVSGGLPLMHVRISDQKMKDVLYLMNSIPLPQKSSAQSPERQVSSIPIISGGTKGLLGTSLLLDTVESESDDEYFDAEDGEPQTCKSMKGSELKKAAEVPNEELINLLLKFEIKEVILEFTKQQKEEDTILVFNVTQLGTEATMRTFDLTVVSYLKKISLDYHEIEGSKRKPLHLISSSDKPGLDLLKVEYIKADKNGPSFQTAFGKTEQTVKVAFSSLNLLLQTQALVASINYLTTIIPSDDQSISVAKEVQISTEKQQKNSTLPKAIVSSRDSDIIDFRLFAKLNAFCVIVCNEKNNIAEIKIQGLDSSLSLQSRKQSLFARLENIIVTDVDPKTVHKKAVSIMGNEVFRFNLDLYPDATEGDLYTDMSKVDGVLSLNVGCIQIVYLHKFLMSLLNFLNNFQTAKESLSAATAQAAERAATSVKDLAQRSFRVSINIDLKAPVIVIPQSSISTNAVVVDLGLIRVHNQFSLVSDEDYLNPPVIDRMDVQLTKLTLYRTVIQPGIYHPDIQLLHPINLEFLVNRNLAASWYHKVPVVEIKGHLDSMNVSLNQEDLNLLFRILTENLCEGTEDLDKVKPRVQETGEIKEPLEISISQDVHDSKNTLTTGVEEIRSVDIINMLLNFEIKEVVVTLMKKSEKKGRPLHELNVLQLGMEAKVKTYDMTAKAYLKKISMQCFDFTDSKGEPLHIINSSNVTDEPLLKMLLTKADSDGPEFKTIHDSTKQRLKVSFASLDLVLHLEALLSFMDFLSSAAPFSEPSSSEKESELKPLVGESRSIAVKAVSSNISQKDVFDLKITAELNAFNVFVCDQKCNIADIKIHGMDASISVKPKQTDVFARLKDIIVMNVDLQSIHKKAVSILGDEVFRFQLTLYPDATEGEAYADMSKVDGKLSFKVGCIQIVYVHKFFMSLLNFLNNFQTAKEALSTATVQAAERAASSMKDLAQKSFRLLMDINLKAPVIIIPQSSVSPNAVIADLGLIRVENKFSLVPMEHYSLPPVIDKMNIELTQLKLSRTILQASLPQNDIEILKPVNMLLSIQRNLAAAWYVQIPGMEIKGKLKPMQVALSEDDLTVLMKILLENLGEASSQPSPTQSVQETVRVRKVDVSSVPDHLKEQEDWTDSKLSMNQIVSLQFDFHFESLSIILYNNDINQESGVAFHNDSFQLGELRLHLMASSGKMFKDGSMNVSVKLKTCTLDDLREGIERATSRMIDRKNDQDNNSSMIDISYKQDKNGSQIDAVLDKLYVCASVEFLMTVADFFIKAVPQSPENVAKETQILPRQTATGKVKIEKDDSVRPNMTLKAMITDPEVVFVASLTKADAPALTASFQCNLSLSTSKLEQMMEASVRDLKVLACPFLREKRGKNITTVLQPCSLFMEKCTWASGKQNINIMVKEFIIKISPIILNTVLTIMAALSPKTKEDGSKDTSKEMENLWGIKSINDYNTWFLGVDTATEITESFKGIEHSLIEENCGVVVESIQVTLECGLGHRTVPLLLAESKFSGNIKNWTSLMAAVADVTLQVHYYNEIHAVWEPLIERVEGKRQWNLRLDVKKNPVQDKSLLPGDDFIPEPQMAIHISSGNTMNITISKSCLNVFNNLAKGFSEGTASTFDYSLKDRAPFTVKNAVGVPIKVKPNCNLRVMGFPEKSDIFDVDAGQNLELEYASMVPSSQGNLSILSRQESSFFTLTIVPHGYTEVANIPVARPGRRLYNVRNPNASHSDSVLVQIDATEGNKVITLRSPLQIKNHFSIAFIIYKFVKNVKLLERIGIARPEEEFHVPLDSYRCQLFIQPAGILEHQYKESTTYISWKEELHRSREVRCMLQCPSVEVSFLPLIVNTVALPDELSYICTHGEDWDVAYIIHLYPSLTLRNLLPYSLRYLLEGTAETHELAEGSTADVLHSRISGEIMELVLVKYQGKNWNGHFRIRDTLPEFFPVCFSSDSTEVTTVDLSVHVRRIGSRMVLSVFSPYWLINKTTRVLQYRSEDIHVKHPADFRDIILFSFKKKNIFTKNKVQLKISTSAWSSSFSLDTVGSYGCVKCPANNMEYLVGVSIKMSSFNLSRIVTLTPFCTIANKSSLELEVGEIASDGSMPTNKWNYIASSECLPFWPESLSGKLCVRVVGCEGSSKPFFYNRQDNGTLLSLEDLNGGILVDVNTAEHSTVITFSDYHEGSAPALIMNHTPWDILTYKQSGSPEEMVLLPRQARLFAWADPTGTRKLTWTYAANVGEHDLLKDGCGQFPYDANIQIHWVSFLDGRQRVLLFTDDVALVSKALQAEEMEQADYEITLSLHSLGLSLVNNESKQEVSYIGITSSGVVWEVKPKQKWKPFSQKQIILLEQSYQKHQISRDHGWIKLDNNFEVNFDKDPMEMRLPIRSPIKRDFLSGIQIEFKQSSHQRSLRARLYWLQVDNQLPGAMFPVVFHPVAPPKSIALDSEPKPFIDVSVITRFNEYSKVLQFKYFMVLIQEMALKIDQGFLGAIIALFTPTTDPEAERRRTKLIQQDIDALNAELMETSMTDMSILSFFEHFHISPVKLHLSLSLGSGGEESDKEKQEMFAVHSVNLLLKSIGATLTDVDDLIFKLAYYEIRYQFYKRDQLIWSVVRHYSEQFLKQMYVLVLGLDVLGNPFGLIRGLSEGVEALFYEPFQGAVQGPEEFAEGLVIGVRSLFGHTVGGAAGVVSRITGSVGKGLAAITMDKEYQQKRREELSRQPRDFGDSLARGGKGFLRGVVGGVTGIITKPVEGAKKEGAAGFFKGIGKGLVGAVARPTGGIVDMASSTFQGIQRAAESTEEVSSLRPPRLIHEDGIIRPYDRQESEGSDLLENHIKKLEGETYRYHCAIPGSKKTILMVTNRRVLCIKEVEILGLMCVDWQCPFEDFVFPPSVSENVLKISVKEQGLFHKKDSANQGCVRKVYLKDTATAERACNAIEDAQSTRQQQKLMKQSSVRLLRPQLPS

Results are given in words; binding and its absence hold for the method and conditions named. Binding seen in cells or lysates may run through a third protein. Here binding means that the protein was enriched with, or labelled near, the bait; the list need not be complete.

The target in this experiment is GFP-RAB7A S72A (UniProt P51149). In words: affinity purification with mass spectrometry; SILAC-labelled HeLa cells transfected with GFP-RAB7A or GFP (Exp 1), GFP-RAB7A S72E or S72A (Exp 2); lysed in RAB7A IP buffer (20 mM HEPES, 10% glycerol, 0.5% Triton X-100, 150 mM NaCl, 2 mM MgCl2); GFP-trap; LC-MS/MS.

With VSP13C (from UniProt Q709C8 1-3753), the binding entry is reported as “binds”.

B1: CHML (protein, UniProt P26374 1-656)
chain: MADNLPTEFDVVIIGTGLPESILAAACSRSGQRVLHIDSRSYYGGNWASFSFSGLLSWLKEYQQNNDIGEESTVVWQDLIHETEEAITLRKKDETIQHTEAFCYASQDMEDNVEEIGALQKNPSLGVSNTFTEVLDSALPEESQLSYFNSDEMPAKHTQKSDTEISLEVTDVEESVEKEKYCGDKTCMHTVSDKDGDKDESKSTVEDKADEPIRNRITYSQIVKEGRRFNIDLVSKLLYSQGLLIDLLIKSDVSRYVEFKNVTRILAFREGKVEQVPCSRADVFNSKELTMVEKRMLMKFLTFCLEYEQHPDEYQAFRQCSFSEYLKTKKLTPNLQHFVLHSIAMTSESSCTTIDGLNATKNFLQCLGRFGNTPFLFPLYGQGEIPQGFCRMCAVFGGIYCLRHKVQCFVVDKESGRCKAIIDHFGQRINAKYFIVEDSYLSEETCSNVQYKQISRAVLITDQSILKTDLDQQTSILIVPPAEPGACAVRVTELCSSTMTCMKDTYLVHLTCSSSKTAREDLESVVKKLFTPYTETEINEEELTKPRLLWALYFNMRDSSGISRSSYNGLPSNVYVCSGPDCGLGNEHAVKQAETLFQEIFPTEEFCPPPPNPEDIIFDGDDKQPEAPGTNNVVMAKLESSEESKNLESPEKHLQN
As for B1, the binding entry is on record as “binds”.

B2: CHM (protein, UniProt P24386 1-653)
chain: MADTLPSEFDVIVIGTGLPESIIAAACSRSGRRVLHVDSRSYYGGNWASFSFSGLLSWLKEYQENSDIVSDSPVWQDQILENEEAIALSRKDKTIQHVEVFCYASQDLHEDVEEAGALQKNHALVTSANSTEAADSAFLPTEDESLSTMSCEMLTEQTPSSDPENALEVNGAEVTGEKENHCDDKTCVPSTSAEDMSENVPIAEDTTEQPKKNRITYSQIIKEGRRFNIDLVSKLLYSRGLLIDLLIKSNVSRYAEFKNITRILAFREGRVEQVPCSRADVFNSKQLTMVEKRMLMKFLTFCMEYEKYPDEYKGYEEITFYEYLKTQKLTPNLQYIVMHSIAMTSETASSTIDGLKATKNFLHCLGRYGNTPFLFPLYGQGELPQCFCRMCAVFGGIYCLRHSVQCLVVDKESRKCKAIIDQFGQRIISEHFLVEDSYFPENMCSRVQYRQISRAVLITDRSVLKTDSDQQISILTVPAEEPGTFAVRVIELCSSTMTCMKGTYLVHLTCTSSKTAREDLESVVQKLFVPYTEMEIENEQVEKPRILWALYFNMRDSSDISRSCYNDLPSNVYVCSGPDCGLGNDNAVKQAETLFQEICPNEDFCPPPPNPEDIILDGDSLQPEASESSAIPEANSETFKESTNLGNLEESSE
Take B2: the binding result is on record as “binds”.
